The record followed here is article PMC10601247.

These are yes or no findings as the source states them, for the method shown. For some assays here: In cells and extracts the contact can be indirect. Some results given as binding are weak or reduced against the parent protein; the word gives no strength. For some assays here: Tags and fused reporters may be left off the sequences shown.

The target in test [1] is T1, recombinant EFR3A (N-terminal 6X-histidine tag) (human) (UniProt Q14156).
T1 sequence: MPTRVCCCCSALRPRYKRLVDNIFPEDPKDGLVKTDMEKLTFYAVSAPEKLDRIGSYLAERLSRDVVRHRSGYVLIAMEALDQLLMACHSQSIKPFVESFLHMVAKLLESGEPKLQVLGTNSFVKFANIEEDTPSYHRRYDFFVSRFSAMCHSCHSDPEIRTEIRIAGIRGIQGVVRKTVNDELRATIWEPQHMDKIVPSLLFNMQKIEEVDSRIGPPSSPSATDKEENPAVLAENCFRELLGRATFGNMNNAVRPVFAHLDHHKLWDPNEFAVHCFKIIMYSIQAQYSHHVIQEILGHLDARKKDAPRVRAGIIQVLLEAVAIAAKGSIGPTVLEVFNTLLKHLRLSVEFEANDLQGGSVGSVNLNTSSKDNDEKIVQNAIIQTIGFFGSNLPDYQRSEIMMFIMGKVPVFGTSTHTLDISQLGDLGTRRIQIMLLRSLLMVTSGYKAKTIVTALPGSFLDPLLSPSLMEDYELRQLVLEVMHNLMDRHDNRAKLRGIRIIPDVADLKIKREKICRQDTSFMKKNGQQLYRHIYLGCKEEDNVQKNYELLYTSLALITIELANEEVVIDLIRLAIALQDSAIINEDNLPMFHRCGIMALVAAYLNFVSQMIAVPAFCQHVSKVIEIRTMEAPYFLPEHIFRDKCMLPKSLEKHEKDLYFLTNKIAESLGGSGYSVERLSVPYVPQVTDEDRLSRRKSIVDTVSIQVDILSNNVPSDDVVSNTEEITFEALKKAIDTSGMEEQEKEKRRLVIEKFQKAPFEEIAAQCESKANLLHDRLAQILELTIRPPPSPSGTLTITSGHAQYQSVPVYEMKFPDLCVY
As to the kind of experiment: far-Western, overlay or dot blot; 20 μg purified recombinant EFR3A after SDS-PAGE on nitrocellulose, strips with bands > 70 kDa, blocked with 5% dry milk in TBS-T; incubated with increasing concentrations of recombinant flotillin-2 in TBS-T; detected with goat anti-flotillin-2 antibodies; both purified.

Test [2] has as its target T2, His-tagged recombinant flotillin-2 (UniProt Q14254).
T2 sequence: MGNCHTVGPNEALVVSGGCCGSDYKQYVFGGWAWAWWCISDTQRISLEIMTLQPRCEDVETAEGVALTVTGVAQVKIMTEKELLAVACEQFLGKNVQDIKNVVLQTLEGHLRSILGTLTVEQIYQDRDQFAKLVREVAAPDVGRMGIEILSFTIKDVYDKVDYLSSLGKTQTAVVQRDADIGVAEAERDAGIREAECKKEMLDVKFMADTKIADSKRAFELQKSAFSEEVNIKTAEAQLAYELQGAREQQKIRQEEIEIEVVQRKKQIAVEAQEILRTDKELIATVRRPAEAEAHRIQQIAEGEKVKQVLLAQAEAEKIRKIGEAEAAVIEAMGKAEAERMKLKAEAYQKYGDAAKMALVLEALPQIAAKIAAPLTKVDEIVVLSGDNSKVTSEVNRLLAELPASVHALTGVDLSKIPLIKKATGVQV
Put plainly: pull-down; recombinant flotillin-2 Sepharose incubated overnight at 4 °C with HeLa DRM fraction in octyl glucoside buffer; bound fraction probed by western blot with anti-EFR3A antibody; unconjugated resin as control; only the target purified. A general note: Immunoblotting shows a protein as a band on a membrane.

The target of test [3] is T3, flotillin-2 (endogenous, HeLa cells) (human (endogenous in HeLa)) (UniProt Q14254).
T3 sequence: T2 sequence
Put plainly: co-IP; HeLa cells solubilized in 20 mM Tris, 150 mM NaCl, 1 mM EDTA, 1% Triton X-100, 5% glycerol, 2% octyl β-D-glucopyranoside pH 7.4; 5 μg goat anti-flotillin-2 antibodies on protein G Dynabeads, 4 °C overnight; nonimmune IgG as control; western blot with anti-EFR3A.

Test [4] concerns the target T2, His-tagged recombinant flotillin-2. Put plainly: pull-down; unpublished data: EFR3A of DRMs from other human cell lines pulled down on immobilized flotillin-2; only the target purified.

B1: His-tagged recombinant flotillin-2 (protein, UniProt Q14254 1-428)
chain: T2 sequence
As for B1, the binding result in test [1] is listed as “binds”.

B2: EFR3A (endogenous, HeLa cells) (protein, UniProt Q14156 1-821)
chain: T1 sequence
With B2, the binding result in test [2] and in test [3] was “binds” throughout.

B3: EFR3A (endogenous, LNCaP cells) (protein, UniProt Q14156 1-821)
chain: T1 sequence
On to B3, for which, in test [4], the binding entry is “binds”.

B4: EFR3A (endogenous, PC-3 cells) (protein, UniProt Q14156 1-821)
chain: T1 sequence
B4: the binding result in test [4] was “binds”.
